Experimental findings from article PMC7949057, “The cytoprotective protein MANF promotes neuronal survival independently from its role as a GRP78 cofactor” (The Journal of Biological Chemistry, 2021) are described below.

Amino acid sequences for entries named in this document (tags omitted). Residues count along the entry.
UniProt P10809, residues 27-573: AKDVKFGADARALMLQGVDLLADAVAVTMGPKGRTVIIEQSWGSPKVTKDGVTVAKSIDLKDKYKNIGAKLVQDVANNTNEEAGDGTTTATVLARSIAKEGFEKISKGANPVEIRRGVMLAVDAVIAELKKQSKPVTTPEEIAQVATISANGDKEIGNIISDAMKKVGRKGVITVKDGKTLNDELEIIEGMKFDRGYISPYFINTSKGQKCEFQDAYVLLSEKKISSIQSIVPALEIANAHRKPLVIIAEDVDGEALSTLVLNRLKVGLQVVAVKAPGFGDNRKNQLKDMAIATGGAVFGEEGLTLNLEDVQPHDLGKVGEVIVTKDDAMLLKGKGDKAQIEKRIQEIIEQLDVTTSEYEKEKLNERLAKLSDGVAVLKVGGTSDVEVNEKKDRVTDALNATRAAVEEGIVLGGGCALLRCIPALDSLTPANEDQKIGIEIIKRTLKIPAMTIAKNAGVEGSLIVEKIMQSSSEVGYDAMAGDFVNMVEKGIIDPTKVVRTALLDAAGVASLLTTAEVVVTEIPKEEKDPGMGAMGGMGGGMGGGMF
UniProt P63039, residues 27-573: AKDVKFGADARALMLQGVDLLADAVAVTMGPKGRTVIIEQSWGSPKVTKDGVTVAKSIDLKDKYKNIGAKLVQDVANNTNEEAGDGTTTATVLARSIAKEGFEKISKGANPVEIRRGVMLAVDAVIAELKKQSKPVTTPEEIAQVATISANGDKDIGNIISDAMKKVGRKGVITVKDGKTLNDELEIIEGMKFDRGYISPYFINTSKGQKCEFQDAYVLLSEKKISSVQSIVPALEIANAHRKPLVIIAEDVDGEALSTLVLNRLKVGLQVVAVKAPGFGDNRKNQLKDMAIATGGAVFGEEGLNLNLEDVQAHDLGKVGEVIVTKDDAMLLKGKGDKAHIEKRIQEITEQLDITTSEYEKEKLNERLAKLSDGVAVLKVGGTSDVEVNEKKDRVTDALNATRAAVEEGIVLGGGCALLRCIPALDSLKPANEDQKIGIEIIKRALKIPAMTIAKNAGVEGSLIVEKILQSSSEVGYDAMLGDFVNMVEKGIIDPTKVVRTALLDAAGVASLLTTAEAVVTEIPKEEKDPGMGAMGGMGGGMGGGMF
UniProt P06733: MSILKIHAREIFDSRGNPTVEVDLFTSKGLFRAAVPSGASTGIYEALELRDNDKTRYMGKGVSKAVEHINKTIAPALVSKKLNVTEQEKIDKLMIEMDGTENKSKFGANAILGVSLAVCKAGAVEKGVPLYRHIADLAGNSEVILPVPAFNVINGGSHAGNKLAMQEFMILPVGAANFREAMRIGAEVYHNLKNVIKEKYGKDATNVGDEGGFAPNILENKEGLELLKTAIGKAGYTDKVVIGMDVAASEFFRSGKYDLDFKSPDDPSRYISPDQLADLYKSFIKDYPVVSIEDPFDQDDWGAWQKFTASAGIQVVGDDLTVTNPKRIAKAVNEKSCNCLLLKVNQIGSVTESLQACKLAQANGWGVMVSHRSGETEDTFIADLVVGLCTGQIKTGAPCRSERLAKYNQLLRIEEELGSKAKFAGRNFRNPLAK
UniProt P04764: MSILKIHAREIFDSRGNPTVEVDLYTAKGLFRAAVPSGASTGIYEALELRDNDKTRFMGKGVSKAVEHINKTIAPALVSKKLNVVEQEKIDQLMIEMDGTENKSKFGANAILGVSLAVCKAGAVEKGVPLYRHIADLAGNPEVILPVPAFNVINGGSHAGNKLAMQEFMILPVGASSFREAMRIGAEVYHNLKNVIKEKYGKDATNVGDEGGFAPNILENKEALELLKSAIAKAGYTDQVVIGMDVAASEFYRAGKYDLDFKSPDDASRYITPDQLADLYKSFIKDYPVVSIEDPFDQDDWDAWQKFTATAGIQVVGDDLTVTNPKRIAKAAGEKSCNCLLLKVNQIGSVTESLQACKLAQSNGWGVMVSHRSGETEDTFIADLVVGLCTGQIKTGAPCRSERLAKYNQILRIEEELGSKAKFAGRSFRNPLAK
UniProt P14625, residues 22-803: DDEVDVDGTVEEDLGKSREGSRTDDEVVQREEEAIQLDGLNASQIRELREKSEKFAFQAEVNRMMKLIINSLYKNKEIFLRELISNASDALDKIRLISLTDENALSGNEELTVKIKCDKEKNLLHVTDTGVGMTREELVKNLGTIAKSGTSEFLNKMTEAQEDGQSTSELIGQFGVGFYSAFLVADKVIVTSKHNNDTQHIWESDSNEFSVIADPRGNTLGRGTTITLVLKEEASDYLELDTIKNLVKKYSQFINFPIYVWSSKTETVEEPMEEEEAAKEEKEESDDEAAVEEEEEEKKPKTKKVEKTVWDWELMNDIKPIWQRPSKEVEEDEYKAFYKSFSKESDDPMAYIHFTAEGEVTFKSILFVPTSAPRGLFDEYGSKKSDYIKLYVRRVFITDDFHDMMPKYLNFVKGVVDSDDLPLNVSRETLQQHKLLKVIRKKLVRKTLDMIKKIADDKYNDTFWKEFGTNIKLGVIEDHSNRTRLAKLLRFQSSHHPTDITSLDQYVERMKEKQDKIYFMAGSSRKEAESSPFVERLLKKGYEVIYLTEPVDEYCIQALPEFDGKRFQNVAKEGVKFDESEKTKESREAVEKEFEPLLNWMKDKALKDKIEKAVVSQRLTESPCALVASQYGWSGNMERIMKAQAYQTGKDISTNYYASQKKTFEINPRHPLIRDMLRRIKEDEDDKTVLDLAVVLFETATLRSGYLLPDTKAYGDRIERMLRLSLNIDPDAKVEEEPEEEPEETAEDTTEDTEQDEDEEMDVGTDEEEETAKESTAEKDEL
UniProt Q66HD0, residues 22-804: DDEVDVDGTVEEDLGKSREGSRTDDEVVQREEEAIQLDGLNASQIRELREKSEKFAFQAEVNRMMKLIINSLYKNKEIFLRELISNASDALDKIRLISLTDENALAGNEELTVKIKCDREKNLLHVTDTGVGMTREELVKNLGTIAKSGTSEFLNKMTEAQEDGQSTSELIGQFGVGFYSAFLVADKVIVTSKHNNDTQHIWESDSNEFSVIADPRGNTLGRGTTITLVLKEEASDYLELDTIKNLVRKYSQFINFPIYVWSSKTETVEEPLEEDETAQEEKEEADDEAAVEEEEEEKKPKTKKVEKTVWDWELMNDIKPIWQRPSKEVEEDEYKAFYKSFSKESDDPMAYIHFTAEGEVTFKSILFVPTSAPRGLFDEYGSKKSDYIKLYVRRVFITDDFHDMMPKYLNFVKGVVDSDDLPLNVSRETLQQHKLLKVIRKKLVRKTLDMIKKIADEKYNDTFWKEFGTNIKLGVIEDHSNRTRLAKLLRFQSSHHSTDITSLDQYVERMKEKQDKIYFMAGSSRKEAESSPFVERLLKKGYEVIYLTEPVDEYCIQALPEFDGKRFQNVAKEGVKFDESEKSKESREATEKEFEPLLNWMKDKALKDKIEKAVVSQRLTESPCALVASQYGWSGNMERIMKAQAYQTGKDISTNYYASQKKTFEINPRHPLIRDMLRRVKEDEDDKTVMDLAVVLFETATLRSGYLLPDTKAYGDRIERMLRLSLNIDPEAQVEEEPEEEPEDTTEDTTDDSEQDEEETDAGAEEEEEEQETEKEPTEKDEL
UniProt P60842: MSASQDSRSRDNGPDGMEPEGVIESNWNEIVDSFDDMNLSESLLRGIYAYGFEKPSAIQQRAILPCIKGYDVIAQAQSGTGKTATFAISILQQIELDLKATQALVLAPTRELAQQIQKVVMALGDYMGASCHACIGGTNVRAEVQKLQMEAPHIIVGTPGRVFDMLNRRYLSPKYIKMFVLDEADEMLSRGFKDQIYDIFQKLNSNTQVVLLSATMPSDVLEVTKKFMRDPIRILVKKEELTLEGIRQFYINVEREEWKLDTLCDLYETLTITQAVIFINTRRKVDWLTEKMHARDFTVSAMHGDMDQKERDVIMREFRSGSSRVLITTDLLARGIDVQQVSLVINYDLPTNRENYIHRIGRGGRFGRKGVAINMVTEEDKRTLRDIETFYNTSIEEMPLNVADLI
UniProt Q3T1J1: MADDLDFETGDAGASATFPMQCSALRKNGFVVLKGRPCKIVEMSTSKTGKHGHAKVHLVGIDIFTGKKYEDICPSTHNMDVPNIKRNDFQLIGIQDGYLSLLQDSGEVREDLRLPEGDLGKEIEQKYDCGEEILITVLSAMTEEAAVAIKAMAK
UniProt P12277: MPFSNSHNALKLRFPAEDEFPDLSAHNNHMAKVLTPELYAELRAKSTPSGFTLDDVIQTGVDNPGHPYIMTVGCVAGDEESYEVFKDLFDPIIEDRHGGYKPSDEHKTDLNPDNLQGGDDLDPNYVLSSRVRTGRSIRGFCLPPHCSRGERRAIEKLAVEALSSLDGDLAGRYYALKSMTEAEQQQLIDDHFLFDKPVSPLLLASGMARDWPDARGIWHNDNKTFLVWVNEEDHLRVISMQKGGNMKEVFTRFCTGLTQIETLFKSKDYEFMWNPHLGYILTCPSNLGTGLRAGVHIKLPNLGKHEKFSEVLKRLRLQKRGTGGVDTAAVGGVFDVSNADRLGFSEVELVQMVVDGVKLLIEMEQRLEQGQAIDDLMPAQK
UniProt P04785, residues 20-509: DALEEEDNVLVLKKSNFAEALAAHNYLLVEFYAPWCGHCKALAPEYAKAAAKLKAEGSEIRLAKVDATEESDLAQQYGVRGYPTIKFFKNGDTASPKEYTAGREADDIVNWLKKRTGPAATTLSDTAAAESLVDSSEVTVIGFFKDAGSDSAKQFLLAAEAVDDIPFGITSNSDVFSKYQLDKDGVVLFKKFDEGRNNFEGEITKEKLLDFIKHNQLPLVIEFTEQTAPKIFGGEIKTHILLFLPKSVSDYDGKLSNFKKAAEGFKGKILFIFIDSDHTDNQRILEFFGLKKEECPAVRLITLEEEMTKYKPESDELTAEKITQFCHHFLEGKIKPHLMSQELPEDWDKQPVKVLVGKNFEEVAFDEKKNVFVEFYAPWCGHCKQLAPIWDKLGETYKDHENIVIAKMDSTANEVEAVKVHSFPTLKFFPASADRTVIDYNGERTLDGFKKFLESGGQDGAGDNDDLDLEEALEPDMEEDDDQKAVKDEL
UniProt P70580: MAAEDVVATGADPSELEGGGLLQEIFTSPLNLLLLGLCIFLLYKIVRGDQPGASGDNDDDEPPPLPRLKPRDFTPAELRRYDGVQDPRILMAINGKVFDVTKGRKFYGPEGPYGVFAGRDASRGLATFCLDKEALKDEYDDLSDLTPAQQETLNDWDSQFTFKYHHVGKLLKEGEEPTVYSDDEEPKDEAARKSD
UniProt P30101, residues 25-505: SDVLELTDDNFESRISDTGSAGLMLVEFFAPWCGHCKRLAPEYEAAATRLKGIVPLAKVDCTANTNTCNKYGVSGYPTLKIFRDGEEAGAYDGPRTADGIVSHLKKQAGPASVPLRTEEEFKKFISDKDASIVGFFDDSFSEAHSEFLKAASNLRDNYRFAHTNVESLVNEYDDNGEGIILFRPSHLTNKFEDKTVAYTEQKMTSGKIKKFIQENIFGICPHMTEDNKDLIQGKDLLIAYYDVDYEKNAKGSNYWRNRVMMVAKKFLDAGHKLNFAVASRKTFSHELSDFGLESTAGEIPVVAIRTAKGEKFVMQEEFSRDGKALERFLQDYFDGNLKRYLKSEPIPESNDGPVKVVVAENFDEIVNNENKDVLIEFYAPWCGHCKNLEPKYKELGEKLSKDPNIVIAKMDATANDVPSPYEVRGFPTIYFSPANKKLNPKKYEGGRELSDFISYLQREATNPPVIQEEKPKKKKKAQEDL
UniProt P61107: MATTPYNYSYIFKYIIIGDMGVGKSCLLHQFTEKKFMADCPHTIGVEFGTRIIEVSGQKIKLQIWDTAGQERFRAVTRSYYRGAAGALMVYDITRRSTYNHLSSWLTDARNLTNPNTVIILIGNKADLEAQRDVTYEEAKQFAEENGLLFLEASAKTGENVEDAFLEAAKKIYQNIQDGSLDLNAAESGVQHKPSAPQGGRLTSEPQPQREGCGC
UniProt P25235, residues 23-631: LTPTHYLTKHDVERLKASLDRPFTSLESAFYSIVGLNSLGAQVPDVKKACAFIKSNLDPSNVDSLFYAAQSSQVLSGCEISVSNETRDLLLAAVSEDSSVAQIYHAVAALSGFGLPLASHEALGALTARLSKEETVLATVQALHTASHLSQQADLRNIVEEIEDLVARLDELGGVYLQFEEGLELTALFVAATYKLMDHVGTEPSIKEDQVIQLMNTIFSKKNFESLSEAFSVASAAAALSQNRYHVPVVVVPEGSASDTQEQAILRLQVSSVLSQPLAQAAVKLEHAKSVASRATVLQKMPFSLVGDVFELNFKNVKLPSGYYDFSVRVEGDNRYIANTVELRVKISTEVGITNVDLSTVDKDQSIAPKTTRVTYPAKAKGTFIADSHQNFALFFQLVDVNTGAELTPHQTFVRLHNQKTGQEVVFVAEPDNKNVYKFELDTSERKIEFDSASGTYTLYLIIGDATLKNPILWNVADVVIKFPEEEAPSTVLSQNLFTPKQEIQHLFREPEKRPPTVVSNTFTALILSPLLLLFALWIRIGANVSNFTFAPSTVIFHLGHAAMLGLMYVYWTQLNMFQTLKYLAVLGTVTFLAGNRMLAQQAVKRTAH

Results are given in words; binding and its absence hold for the method and conditions named. In cells and extracts the contact can be indirect. A yes stands for co-enrichment or nearness to the bait. Other partners may have been found. For some of these results: No binding means not detected with the bait. Sequences can lack the tags named with a protein.

In experiment [1] the target is T1, SH-tagged MANF (pre-SH-MANF), expressed in HEK293 cells (human) (UniProt P55145).
T1 sequence: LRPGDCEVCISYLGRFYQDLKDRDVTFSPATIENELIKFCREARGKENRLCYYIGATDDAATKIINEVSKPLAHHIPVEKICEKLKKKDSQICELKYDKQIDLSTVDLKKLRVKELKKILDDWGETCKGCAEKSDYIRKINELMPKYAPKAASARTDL
In words: affinity purification with mass spectrometry; SH-tagged MANF as bait from doxycycline-induced HEK293 pre-SH-MANF cells; HENN lysis buffer (50 mM Hepes-NaOH pH 8.0, 5 mM EDTA, 150 mM NaCl, 50 mM NaF, 0.5% NP40); Strep-Tactin beads, biotin elution; GFP-SH cells as negative control; FDR <= 0.001, s0 = 2.

The target in experiment [2] is T2, SH-tagged MANF (pre-SH-MANF), expressed in INS1 cells (human) (UniProt P55145).
T2 sequence: T1 sequence
In words: affinity purification with mass spectrometry; SH-tagged MANF as bait from doxycycline-induced INS1 pre-SH-MANF cells; HENN lysis buffer; Strep-Tactin beads, biotin elution; GFP-SH cells as negative control; FDR <= 0.001, s0 = 2.

For “60 kDa heat shock protein (CH60), endogenous in HEK293 (from UniProt P10809 27-573)”, the binding entry in experiment [1] is recorded as “binds”.
On to “60 kDa heat shock protein (CH60), endogenous in INS1 (from UniProt P63039 27-573)”, for which the binding entry in experiment [2] was “binds”.
As for “ENOA, endogenous in HEK293 (from UniProt P06733 1-434)”, in experiment [1], the binding result is reported as “binds”.
With “ENOA, endogenous in INS1 (from UniProt P04764 1-434)”, the binding result in experiment [2] was “binds”.
On to “GRP94, endogenous in HEK293 (from UniProt P14625 22-803)”, for which, in experiment [1], the binding result is reported as “binds”.
As for “GRP94, endogenous in INS1 (from UniProt Q66HD0 22-804)”, the binding result in experiment [2] was “no binding”.
For the substance “HS105, endogenous in HEK293 (from UniProt Q92598 1-858)”, the binding entry in experiment [1] is on record as “binds”.
On the same count and under the same terms, in the case of “IF4A1, endogenous in HEK293 (from UniProt P60842 1-406)” it was “binds”.
Consider “IF4A1, endogenous in INS1 (from UniProt Q6P3V8 1-407)”, for which the binding result in experiment [2] was “binds”.
On the same count and under the same terms, the result for “IF5A1, endogenous in INS1 (from UniProt Q3T1J1 1-154)” reads “binds”.
“KCRB, endogenous in HEK293 (from UniProt P12277 1-381)”: the binding result in experiment [1] is “binds”.
Consider “KCRB, endogenous in INS1 (from UniProt P07335 1-381)”, for which the binding entry in experiment [2] was “binds”.
On the same count and under the same terms, in the case of “PDIA1, endogenous in INS1 (from UniProt P04785 20-509)” it was “binds”.
Regarding “PGAM1, endogenous in HEK293 (from UniProt P18669 1-254)”, the binding result in experiment [1] is “binds”.
For “calnexin, endogenous in HEK293 (from UniProt P27824 21-592)”, in experiment [1], the binding result is given as “binds”.
Consider “endoplasmic reticulum resident protein 29, endogenous in INS1 (from UniProt P52555 33-260)”, for which the binding result in experiment [2] is given as “binds”.
As for “eukaryotic translation initiation factor 5A-1 (IF5A1), endogenous in HEK293 (from UniProt P63241 1-154)”, the binding result in experiment [1] is recorded as “binds”.
Same read-out and setting: in the case of “glucose-regulated protein 78 (GRP78), endogenous in HEK293 (from UniProt P11021 19-654)” it was “binds”.
In the case of “membrane-associated progesterone receptor component 1, endogenous in INS1 (from UniProt P70580 1-195)”, the binding result in experiment [2] is recorded as “binds”.
As for “protein disulfide isomerase family A member 1 (PDIA1), endogenous in HEK293 (from UniProt P07237 18-508)”, the binding entry in experiment [1] was “binds”.
Same read-out and setting: the result for “protein disulfide isomerase family A member 3, endogenous in HEK293 (from UniProt P30101 25-505)” reads “binds”.
For “ras-related protein Rab-1B, endogenous in INS1 (from UniProt P10536 1-201)”, in experiment [2], the binding entry was “binds”.
Same read-out and setting: the result for “ras-related protein Rab-14, endogenous in INS1 (from UniProt P61107 1-215)” reads “binds”.
On the same count and under the same terms, in the case of “ribophorin 2, endogenous in INS1 (from UniProt P25235 23-631)” it was “binds”; in that of “ubiquitin carboxyl-terminal hydrolase isozyme L1, endogenous in INS1 (from UniProt Q00981 1-223)”, “binds”.
